No constants are given. Whether binding was seen depends on the method and setting. Binding can be weak; no strength is given.
Assays:
[1] = target: bovine serum albumin (BSA) (bovine) (UniProt P02769); experiment: native gel or EMSA; 2D blue native/SDS-PAGE (non-reducing second dimension), BMP-2 mixed with 30 ug BSA, silver stain; both purified
[2] = target: bovine serum albumin (BSA) (bovine) (UniProt P02769); experiment: native gel or EMSA; cathodic native PAGE at pH 7.6, BMP-2 alone or mixed with albumin, silver stain; both purified
[3] = target: human serum albumin (HSA) (human) (UniProt P02768); experiment: AF4/MALS (asymmetric flow field-flow fractionation with multi-angle light scattering); mixture of 0.20 mg/mL BMP-2 and 1.15 mg/mL HSA (in MES) injected into PBS pH 7.4; MALS/dRI; both purified

The chains behind the UniProt entries cited, without tags or fusion partners. Where a name states a change or a piece, a line headed by the entry shows the natural chain unless it says otherwise. Residues count along the entry.
UniProt P02769, residues 25-607: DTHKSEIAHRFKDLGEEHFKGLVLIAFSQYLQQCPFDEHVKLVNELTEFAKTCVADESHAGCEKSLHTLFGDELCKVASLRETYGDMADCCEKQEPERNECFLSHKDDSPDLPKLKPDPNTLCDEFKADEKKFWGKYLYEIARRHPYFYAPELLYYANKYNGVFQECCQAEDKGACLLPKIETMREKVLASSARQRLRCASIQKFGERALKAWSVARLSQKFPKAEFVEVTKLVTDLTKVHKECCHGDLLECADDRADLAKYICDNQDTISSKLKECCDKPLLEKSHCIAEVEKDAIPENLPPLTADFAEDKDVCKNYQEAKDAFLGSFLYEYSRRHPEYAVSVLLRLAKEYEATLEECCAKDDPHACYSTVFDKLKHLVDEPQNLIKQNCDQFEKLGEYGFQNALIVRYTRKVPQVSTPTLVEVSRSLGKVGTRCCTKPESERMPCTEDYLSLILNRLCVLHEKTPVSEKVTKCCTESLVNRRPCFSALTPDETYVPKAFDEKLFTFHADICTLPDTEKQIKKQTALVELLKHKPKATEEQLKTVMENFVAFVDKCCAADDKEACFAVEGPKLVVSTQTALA
UniProt P02768, residues 25-609: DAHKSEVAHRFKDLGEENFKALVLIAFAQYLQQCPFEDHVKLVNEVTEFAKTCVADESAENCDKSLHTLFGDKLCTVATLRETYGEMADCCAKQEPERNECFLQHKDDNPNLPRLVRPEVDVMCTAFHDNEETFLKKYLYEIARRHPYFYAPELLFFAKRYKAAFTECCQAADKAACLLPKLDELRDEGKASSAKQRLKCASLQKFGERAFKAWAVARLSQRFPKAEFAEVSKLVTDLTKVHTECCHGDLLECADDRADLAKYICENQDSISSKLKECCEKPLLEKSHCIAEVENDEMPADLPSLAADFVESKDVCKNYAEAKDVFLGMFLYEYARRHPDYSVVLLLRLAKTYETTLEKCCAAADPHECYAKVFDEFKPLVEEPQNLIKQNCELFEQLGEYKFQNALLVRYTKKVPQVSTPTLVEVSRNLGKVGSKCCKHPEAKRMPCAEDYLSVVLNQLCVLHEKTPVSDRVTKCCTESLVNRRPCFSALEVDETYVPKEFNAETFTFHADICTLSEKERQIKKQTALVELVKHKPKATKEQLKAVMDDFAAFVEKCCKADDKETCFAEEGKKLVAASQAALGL
UniProt P12643: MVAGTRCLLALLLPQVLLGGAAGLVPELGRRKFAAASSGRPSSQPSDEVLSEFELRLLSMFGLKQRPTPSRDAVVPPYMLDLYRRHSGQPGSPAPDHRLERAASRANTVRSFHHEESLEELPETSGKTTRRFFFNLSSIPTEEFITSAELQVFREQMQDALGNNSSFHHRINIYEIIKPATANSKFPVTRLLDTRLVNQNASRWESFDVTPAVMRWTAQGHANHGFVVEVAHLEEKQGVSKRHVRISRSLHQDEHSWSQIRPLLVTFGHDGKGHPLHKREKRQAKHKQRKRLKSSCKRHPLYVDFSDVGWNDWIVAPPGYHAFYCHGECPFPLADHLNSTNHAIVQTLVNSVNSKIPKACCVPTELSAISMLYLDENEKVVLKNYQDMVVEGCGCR

binding [1]: binds | binding [2]: binds | binding [3]: binds
Substance: E. coli-derived recombinant human bone morphogenetic protein 2 (rhBMP-2) (from UniProt P12643) (ligand)

Source: PMC7760923
